{"sequences": {"note": "The chains behind the UniProt entries cited, without tags or fusion partners. Where a name states a change or a piece, a line headed by the entry shows the natural chain unless it says otherwise.", "UniProt Q96AB3": "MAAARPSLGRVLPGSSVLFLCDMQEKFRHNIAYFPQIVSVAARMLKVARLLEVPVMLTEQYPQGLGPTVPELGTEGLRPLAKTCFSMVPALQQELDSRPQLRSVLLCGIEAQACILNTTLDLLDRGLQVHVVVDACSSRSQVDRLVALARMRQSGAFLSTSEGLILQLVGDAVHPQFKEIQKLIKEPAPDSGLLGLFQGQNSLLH", "UniProt P23677, whole entry, looked up": "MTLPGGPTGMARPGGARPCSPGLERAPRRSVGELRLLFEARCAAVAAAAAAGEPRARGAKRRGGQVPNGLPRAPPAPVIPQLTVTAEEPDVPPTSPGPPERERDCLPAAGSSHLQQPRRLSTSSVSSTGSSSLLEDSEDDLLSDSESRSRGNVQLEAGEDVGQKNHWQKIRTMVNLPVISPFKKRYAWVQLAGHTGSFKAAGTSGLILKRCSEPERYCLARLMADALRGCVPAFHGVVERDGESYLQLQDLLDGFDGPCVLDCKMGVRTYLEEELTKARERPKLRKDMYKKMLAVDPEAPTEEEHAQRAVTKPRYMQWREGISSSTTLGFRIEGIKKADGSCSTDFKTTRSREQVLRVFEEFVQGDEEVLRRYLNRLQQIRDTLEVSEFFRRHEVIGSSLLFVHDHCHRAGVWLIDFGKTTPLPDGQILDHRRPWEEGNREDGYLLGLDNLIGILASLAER", "UniProt Q8N5M9": "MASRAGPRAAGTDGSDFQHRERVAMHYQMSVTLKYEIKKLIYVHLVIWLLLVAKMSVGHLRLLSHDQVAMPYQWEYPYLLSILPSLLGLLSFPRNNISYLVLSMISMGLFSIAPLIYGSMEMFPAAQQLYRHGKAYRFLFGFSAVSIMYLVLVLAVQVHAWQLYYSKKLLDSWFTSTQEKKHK", "UniProt Q9H3F6": "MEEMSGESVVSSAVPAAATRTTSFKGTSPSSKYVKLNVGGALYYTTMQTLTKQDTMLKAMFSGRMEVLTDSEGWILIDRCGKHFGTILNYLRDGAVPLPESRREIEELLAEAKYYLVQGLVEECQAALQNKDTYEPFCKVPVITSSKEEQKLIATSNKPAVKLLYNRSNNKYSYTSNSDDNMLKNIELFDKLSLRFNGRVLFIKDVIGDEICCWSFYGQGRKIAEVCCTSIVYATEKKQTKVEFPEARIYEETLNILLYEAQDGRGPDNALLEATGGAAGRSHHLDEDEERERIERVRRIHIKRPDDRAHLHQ", "UniProt Q9NPH2": "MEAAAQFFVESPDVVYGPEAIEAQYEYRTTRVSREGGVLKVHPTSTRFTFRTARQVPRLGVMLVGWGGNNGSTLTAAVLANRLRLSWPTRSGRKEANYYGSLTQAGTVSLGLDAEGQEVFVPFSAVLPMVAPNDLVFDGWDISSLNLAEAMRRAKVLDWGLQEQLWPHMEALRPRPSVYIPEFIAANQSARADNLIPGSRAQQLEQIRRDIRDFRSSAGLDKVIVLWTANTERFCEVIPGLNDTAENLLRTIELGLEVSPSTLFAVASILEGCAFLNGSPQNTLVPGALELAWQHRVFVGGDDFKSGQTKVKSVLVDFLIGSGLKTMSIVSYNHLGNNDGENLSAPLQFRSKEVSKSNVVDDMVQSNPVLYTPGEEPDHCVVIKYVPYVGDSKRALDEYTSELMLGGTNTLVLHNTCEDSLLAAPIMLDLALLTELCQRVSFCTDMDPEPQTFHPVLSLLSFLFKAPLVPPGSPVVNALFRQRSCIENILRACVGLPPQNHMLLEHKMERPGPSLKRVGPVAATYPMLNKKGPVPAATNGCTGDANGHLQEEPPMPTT", "UniProt Q9H1K1": "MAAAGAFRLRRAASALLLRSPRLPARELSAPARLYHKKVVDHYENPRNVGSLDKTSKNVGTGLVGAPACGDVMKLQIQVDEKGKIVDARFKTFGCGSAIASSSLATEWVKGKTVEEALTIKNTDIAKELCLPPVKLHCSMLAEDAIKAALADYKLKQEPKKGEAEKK", "UniProt P46940, whole entry, looked up": "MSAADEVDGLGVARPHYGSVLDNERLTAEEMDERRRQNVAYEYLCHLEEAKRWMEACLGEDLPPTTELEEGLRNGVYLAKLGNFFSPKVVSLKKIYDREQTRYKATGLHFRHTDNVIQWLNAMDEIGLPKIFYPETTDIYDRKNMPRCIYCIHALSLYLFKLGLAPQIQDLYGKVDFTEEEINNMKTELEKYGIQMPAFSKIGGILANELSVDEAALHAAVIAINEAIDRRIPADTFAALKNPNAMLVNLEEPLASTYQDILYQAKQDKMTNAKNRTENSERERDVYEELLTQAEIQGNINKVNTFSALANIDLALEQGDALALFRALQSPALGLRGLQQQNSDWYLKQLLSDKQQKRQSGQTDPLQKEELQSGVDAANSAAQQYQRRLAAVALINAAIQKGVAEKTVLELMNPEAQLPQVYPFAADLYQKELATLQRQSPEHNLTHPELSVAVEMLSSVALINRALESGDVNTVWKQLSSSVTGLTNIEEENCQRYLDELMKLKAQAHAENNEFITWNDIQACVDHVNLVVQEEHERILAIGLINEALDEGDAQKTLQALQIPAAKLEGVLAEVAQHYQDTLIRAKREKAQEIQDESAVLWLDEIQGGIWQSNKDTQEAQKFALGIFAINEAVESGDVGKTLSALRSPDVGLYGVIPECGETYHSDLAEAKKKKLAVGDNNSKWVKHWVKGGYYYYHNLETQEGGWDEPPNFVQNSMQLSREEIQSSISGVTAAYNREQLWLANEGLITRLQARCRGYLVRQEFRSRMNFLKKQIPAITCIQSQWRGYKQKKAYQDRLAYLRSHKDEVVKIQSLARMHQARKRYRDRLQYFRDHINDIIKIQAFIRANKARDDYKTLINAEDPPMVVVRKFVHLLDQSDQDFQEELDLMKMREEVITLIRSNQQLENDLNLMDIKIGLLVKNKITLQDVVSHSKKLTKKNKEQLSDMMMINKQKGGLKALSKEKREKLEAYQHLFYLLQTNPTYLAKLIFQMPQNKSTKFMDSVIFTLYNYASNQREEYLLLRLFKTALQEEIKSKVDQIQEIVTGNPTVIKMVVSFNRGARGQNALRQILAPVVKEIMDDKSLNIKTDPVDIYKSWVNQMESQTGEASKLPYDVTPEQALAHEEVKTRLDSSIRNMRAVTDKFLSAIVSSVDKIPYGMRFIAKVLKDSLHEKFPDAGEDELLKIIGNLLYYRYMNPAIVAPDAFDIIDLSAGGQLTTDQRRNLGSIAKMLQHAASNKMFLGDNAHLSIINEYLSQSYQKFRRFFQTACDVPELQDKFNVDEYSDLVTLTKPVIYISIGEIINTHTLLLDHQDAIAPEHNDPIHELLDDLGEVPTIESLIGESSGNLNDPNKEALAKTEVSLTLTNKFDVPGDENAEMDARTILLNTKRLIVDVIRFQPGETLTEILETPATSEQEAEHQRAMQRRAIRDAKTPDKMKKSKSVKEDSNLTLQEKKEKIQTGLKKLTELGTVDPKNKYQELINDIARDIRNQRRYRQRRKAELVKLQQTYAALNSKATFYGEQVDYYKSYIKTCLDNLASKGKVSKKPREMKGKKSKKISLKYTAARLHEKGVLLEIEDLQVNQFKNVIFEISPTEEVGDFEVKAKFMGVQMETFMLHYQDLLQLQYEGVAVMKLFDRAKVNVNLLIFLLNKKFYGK", "UniProt Q6DN90": "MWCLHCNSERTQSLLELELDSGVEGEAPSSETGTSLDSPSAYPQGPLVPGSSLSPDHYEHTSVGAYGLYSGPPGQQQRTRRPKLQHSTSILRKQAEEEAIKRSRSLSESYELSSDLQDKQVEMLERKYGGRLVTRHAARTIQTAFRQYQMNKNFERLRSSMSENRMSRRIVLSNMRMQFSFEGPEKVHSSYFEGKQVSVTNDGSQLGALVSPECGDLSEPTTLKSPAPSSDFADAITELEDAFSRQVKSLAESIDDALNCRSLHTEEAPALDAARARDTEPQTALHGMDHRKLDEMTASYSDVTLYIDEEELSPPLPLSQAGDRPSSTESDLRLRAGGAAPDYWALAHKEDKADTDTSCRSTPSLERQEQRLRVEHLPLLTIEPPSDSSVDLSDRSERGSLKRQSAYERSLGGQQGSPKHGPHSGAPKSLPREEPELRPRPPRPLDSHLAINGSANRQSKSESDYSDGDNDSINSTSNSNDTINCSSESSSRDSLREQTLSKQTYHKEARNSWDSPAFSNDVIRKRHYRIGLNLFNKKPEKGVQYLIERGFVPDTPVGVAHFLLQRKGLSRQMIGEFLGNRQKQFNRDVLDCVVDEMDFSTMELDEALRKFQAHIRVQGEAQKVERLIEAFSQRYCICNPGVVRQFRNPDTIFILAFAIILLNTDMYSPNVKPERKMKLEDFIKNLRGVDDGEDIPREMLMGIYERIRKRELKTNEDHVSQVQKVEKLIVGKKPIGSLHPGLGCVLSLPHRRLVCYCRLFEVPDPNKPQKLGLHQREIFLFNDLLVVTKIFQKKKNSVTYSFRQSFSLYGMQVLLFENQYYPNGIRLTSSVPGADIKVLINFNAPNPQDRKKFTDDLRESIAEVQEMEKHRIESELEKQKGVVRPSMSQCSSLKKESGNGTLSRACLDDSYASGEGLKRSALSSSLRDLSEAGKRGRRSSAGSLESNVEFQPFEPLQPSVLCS", "UniProt Q7L273": "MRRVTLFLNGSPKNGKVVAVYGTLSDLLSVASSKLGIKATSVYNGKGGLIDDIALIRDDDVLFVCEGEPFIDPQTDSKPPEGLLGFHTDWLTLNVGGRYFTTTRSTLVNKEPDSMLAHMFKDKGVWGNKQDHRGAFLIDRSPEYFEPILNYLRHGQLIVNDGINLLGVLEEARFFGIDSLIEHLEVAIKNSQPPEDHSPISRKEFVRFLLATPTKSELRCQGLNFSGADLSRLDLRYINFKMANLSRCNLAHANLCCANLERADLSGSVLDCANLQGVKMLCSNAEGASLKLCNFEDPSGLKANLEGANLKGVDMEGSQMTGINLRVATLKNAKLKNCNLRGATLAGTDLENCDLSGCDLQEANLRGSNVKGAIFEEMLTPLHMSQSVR", "UniProt Q9H1B7, whole entry, looked up": "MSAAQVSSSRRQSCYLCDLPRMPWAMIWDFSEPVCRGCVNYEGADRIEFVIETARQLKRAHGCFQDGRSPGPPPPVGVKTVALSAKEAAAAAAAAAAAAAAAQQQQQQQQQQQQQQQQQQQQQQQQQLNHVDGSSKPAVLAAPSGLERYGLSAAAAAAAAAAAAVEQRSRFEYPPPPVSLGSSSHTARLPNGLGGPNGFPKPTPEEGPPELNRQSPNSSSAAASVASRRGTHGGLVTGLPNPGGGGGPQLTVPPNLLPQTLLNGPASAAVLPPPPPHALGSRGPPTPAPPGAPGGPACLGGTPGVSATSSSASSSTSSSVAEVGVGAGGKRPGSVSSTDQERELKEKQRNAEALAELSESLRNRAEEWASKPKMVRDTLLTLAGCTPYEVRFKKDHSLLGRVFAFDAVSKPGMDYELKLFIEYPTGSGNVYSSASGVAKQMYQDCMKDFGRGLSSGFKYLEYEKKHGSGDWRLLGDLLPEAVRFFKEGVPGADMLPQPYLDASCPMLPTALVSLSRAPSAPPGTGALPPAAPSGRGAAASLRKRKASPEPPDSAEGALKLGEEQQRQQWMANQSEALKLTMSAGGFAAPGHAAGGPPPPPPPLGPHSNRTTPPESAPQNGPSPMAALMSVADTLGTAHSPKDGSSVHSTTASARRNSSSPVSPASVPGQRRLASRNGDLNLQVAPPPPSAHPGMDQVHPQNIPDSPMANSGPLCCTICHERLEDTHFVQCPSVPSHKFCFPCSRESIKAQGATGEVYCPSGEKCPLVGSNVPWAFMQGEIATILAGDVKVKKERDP", "UniProt Q8IU81": "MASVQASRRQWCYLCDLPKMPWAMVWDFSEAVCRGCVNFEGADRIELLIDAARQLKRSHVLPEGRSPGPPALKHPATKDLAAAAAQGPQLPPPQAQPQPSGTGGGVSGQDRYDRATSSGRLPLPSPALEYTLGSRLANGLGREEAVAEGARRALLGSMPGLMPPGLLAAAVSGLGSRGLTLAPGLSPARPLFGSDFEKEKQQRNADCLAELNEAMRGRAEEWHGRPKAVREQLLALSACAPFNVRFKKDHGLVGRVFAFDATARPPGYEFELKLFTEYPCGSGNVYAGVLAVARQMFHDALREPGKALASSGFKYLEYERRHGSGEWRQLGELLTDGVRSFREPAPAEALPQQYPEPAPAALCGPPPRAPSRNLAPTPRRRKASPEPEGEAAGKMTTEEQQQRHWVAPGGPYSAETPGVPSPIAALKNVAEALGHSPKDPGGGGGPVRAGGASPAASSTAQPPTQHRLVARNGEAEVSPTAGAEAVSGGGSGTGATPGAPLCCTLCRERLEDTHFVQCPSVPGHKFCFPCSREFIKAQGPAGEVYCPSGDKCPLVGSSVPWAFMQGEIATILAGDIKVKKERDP", "UniProt Q96CN7": "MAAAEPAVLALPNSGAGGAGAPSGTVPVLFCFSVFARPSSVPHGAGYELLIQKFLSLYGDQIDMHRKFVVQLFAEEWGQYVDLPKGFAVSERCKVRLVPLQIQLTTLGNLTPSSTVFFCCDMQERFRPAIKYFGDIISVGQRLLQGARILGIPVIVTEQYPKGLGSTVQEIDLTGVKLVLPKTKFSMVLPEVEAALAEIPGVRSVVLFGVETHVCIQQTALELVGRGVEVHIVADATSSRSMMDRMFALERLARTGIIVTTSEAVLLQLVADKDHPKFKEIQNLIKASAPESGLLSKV"}, "source": "the supplement of paper PMC10849652", "note": "This is one part of the list.", "data": [{"compound": "CN1CCN(c2nc(C3=C(c4c[nH]c5ccccc45)C(=O)NC3=O)c3ccccc3n2)CC1 [sotrastaurin]", "test": "log2 fold change, soluble protein after heating vs DMSO (PISA); higher = thermal stabilisation; K562 lysate, 10 uM; active = over 0.2 and 3.5 SD of the protein, either way, in both replicates (recomputed)", "how_it_was_run": "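Quantification was by TMTpro 16plex LC-MS/MS with equalised channel sums, applied to the supernatant after 21,000xg for 90 min. Samples were crude K562 extract at 1 mg/mL protein in PBS pH 7.4 with 1 mM MgCl2, treated with 10 μM compound for 30 min, heated for 3 min across 48°C-58°C, pooled and brought to 0.5% NP-40 at 4°C. Values are log-two fold changes in thermal stability relative to solvent controls, from duplicates.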", "values": [{"target": "ISOC2 (UniProt Q96AB3)", "log2 fold change": "inactive: 0.002"}, {"target": "INTS5 (UniProt Q6P9B9)", "log2 fold change": "inactive: -0.092"}, {"target": "ITPKA (UniProt P23677)", "log2 fold change": "inactive: -0.045"}, {"target": "IPO11 isoform 2 (UniProt Q9UI26)", "log2 fold change": "inactive: 0.024"}, {"target": "JAGN1 (UniProt Q8N5M9)", "log2 fold change": "inactive: -0.108"}, {"target": "KDM1B (UniProt Q8NB78)", "log2 fold change": "inactive: 0.018"}, {"target": "KDELR2 (UniProt P33947)", "log2 fold change": "inactive: 0.063"}, {"target": "INTS9 (UniProt Q9NV88)", "log2 fold change": "inactive: 0.013"}, {"target": "KCTD10 (UniProt Q9H3F6)", "log2 fold change": "inactive: -0.027"}, {"target": "ISYNA1 (UniProt Q9NPH2)", "log2 fold change": "inactive: 0.016"}, {"target": "ISCU (UniProt Q9H1K1)", "log2 fold change": "inactive: -0.014"}, {"target": "IQGAP1 (UniProt P46940)", "log2 fold change": "inactive: 0.01"}, {"target": "INTS14 (UniProt Q96SY0)", "log2 fold change": "inactive: 0.001"}, {"target": "KDM1A (UniProt O60341)", "log2 fold change": "inactive: 0.005"}, {"target": "KBTBD2 (UniProt Q8IY47)", "log2 fold change": "inactive: -0.03"}, {"target": "IQSEC1 (UniProt Q6DN90)", "log2 fold change": "inactive: 0.021"}, {"target": "IRAK1 (UniProt P51617)", "log2 fold change": "inactive: -0.029"}, {"target": "ITGAV (UniProt P06756)", "log2 fold change": "inactive: 0.011"}, {"target": "KCTD9 (UniProt Q7L273)", "log2 fold change": "inactive: -0.018"}, {"target": "IRF2BPL (UniProt Q9H1B7)", "log2 fold change": "inactive: -0.005"}, {"target": "IRF2BP1 (UniProt Q8IU81)", "log2 fold change": "inactive: 0.01"}, {"target": "ISOC1 (UniProt Q96CN7)", "log2 fold change": "inactive: 0.012"}, {"target": "KAT7 (UniProt O95251)", "log2 fold change": "inactive: -0.014"}]}]}
